Reference: patent publication US9012608B2 (priority 2007, dated 2015)
At least one compound was matched to its structure with a doubt left.

Tested on: B. anthracis Sterne strain spores
Set-up: species or system Bacillus anthracis
Conditions: in vivo

CN(C)[C@@H]1C(O)=C(C(N)=O)C(=O)[C@@]2(O)C(O)=C3C(=O)c4c(O)cccc4[C@@](C)(O)[C@H]3C[C@@H]12 [tetracycline]
survival during the treatment (7 days): All the mice
